From patent US5424394A (priority 1993, dated 1995)

Test: general procedure: Boc solid-phase peptide synthesis; 4-methylbenzhydrylamine resin (0.72 meq/g or 0.44 meq/g); HOBT-NMP protocol (NMP/DMSO/DIEA solvent system)
Conditions: whole synthesis, capillary electrophoresis, scale of the general procedure 0.5 mmol; for final HPLC purity: analytical RP-HPLC

| Substance | final HPLC purity [%] | final purity (method not given) [%] | final HPLC purity (run 1) [%] |
| --- | --- | --- | --- |
| ^29 Pro-Human Amylin | 93 | 91.4 | – |
| ^23 Leu-Human Amylin | – | 96.1 | – |
| Human Amylin (KCNTATCATQRLANFLVHSSNNFGAILSSTNVGSNTY; Islet amyloid polypeptide C-terminal amide; UniProt P10997 34-70, looked up) | – | 92.3 | >95 |
